Measurements: patent US20230263900A1 (priority 2020, published 2023)

assay: peptide synthesis; settings: late stage modification step

| Substance | step yield [%] |
| --- | --- |
| BHALys[Lys]2[Lys]4[(α-NH2·TFA)4(ε-NH2·TFA)4] | 101 |
| BHALys[Lys]2[Lys]4[Lys]8[(α-NH2·TFA)8(ε-NH2·TFA)8] | 100 |
| BHALys[Lys]2[Lys]4[Lys]8[Lys]16[(α-NH2·TFA)16(ε-NH2·TFA)16] | 100 |
